Assay results reported in patent publication US7060486B2, “Inhibition of sulfate-reducing-bacteria-mediated degradation using bacteria which secrete antimicrobials” (priority 1998, dated 2006).
Some of these results come from one statement about several compounds together.

Test system: D. gigas
Assay: Susceptibility of SRB cultures to antibiotics and inorganics
Type: cell-based
Method: D. vulgaris and D. gigas were incubated in the presence of various antimicrobial peptides, and their viability after one-hour exposure was determined. […] D. gigas was inhibited by anthraquinone at 100 μg/mL (Cooling et al., 1996), and both SRB were inhibited by sodium molybdate at 100 μg/mL. This is similar to the observation of Saleh, et al., 1964, who surveyed nearly 200 compounds for their SRB-inhibitory activity and noted that SRB show a high degree of resistance to inhibitory compounds (Id.).

Structure (SMILES): CC1(C)S[C@@H]2[C@H](NC(=O)[C@H](N)c3ccccc3)C(=O)N2[C@H]1C(=O)O [ampicillin]
- concentration that inhibits the strain: > 100 µg/mL

Structure (SMILES): O=C(N[C@H](CO)[C@H](O)c1ccc([N+](=O)[O-])cc1)C(Cl)Cl [chloramphenicol]
- concentration that inhibits the strain: > 100 µg/mL
